Laboratory results from patent USRE30548E (The Salk Institute for Biological Studies, priority 1979, dated 1981).

Test: general procedure: Boc solid-phase peptide synthesis; chloromethylated polystyrene resin (Bio Rad) or hydroxymethyl resin; N,N'-dicyclohexyl carbodiimide
Conditions: whole synthesis, scale 5 grams resin

Substance: H-CFFWKTFC-OH (cysteine pairing not given here)
- crude mass: 950 mg
